Data as given in publication PMC9388682, “Structural basis for cannabinoid-induced potentiation of alpha1-glycine receptors in lipid nanodiscs” (Nature Communications, 2022).
No constants are given. Whether binding was seen depends on the method and setting. Some results given as binding are weak or reduced against the parent protein; the word gives no strength.

Molecular target: zebrafish glycine receptor alpha1 (GlyRα1), full-length, homopentamer in asolectin nanodiscs (zebrafish) (UniProt O93430)
Assay: cryo-EM structure; purified GlyR in asolectin nanodiscs (MSP1E3D1), buffer A (200 mM NaCl, 20 mM HEPES pH 8.0); with or without 32 μM THC and 0, 0.1 or 1 mM glycine; Titan Krios 300 keV, RELION; homopentamer; both purified

B1: zebrafish glycine receptor alpha1 (GlyRα1), full-length, homopentamer in asolectin nanodiscs (receptor, UniProt O93430 25-444, looked up)
chain: ARKAASPMPPSEFLDKLMGKVSGYDARIRPNFKGPPVNVTCNIFINSFGSIAETTMDYRVNIFLRQQWNDPRLAYSEYPDDSLDLDPSMLDSIWKPDLFFANEKGANFHEVTTDNKLLRISKNGNVLYSIRITLVLACPMDLKNFPMDVQTCIMQLESFGYTMNDLIFEWDEKGAVQVADGLTLPQFILKEEKDLRYCTKHYNTGKFTCIEARFHLERQMGYYLIQMYIPSLLIVILSWVSFWINMDAAPARVGLGITTVLTMTTQSSGSRASLPKVSYVKAIDIWMAVCLLFVFSALLEYAAVNFIARQHKELLRFQRRRRHLKEDEAGDGRFSFAAYGMGPACLQAKDGMAIKGNNNNAPTSTNPPEKTVEEMRKLFISRAKRIDTVSRVAFPLVFLIFNIFYWITYKIIRSEDIHKQ
modifications: N-glycans at Asn62
notes: glycine receptor subunit alpha-1, zebrafish, codon-optimized full-length gene (NCBI NP_571477); residues of the models numbered as in UniProt O93430; Phe341-Lys394 (M3-M4 loop, ICD) not modelled in the structures; also called zebrafish homomeric GlyRα1; glycine α1 receptor
  binding: binds
